Experimental data reported in doi:10.1101/2025.01.01.631040.
Results are given in words; binding and its absence hold for the method and conditions named. In cells and extracts the contact can be indirect. Some binding calls cover weakened binding; strength is not graded here. Where a sequence is shown, tags or fusion partners need not be part of it.

Chains of the proteins cited; added tags and fusions are not shown. Lines headed by an entry give the natural chain unless they say otherwise; changes in a name come on top.
UniProt Q9LS94: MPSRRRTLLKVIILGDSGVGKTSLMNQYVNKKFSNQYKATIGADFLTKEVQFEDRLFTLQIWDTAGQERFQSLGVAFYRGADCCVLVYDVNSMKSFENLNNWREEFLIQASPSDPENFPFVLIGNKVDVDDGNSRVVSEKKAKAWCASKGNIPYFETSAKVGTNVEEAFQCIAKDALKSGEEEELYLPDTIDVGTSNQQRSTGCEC
UniProt Q9C820: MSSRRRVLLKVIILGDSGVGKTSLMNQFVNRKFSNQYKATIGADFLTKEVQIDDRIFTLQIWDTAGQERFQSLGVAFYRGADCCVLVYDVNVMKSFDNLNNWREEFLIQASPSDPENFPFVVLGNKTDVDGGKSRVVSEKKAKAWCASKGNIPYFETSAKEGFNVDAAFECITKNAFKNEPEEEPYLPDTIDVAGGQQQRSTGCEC
UniProt O04157: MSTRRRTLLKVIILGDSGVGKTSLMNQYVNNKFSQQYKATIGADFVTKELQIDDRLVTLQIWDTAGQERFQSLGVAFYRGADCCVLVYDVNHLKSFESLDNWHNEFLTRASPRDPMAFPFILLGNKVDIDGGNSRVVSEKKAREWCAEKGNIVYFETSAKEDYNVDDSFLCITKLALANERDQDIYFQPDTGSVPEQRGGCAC
UniProt Q9XI98: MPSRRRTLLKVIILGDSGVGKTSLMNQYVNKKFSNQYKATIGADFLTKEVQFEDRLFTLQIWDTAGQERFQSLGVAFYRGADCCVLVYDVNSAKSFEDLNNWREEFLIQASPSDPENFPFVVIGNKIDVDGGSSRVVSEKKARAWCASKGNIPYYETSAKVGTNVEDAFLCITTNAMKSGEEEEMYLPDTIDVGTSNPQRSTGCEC

Molecular target: T1, ATG8h fused to cLUC (Arabidopsis thaliana) (UniProt Q8S925)
T1 sequence: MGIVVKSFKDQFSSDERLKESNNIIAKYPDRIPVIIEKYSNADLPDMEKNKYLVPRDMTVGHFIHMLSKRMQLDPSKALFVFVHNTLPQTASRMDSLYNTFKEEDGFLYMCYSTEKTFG
Assay: split reporter

binding, binds:
RABG3f-nLUC (from UniProt Q9LS94 1-206)

Molecular target: T2, cLUC-ATG8a (Arabidopsis thaliana) (UniProt Q8LEM4)
T2 sequence: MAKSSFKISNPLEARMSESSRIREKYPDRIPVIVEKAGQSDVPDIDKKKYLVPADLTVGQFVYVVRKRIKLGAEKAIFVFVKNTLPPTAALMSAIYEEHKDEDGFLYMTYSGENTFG
Assay: split reporter

binding, binds:
RABG3f^mAIM1 (F96A L99A) fused to nLUC (from UniProt Q9LS94 1-206)
RABG3f(CA)-nLUC, GTP-bound, constitutive active variant (Q67L) (from UniProt Q9LS94 1-206)
RABG3f(DN)-nLUC, GDP-bound, dominant-negative variant (T22N) (from UniProt Q9LS94 1-206)
RABG3d fused to nLUC (from UniProt Q9C820 1-206)
RABG3f^mAIM2 (F169A I172A) fused to nLUC (from UniProt Q9LS94 1-206)
RABG3f-nLUC (from UniProt Q9LS94 1-206)
RABG3b fused to nLUC (from UniProt O04157 1-203)
RABG3e fused to nLUC (from UniProt Q9XI98 1-206)
